# Source: PubChem BioAssay AID2551 (National Center for Advancing Translational Sciences (NCATS), 2010)
# Sequences of proteins named here, by UniProt entry; tags and fusion partners are left off. A change or cut given only in a name is not applied to a line headed by its entry.
# UniProt P51450: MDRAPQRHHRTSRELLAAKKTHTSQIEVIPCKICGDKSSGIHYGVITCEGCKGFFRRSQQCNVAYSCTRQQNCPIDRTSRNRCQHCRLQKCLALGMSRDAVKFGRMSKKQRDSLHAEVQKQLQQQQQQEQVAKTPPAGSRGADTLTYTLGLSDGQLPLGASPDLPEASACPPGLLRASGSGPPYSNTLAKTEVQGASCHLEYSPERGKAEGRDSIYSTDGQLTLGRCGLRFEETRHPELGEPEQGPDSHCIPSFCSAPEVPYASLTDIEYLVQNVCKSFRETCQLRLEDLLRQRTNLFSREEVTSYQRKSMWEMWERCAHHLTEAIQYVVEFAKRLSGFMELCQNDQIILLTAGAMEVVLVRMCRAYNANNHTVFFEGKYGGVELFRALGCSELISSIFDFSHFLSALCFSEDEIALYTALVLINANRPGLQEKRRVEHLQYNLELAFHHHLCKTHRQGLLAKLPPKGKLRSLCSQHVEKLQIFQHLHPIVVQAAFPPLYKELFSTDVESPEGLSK
# In all, about 310,000 compounds went through this assay and about 17,000 (5.5%) were called active. Inconclusive results, whose numbers are uncertain, are shown with a selection of clear calls. Calls come from the whole dose curve; as a rule, active = well fitted inhibition curve with a large enough effect; inconclusive = small, poorly fitted or top-dose-only effect, or effect the other way; inactive = no such curve, though single readings can be large or run the other way. Potencies of inconclusive entries are doubtful fits and often do not repeat.
# Target: Nuclear receptor ROR-gamma (Mus musculus) (UniProt P51450)
# Assay: qHTS for inhibitors of ROR gamma transcriptional activity; note: nearly all actives have a fitted effect of over 60% in size
# Conditions: Drosophila S2 Gal4-RORgamma UAS-luciferase reporter, 20 h; activity change, negative = inhibition: at 53.6 µM (top of the series)
# In short: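 Luminescence from a UAS-regulated Photinus luciferase reporter in stably transfected Drosophila Schneider cells is measured; decreased signal marks ROR gamma inhibition. Fusion expression is induced by 700 uM copper sulfate for 20 hr.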
# % is set by controls: 0 for no effect and ±100 for the full control effect; potency is the fitted concentration of half-maximal effect.
Compound,Potency,"activity change, negative = inhibition"
CC1CN(S(=O)(=O)c2ccc(NC(=O)c3cc(-c4ccccc4O)n[nH]3)cc2)CC(C)O1 (stereo unspecified),"inconclusive: 15.8 µM [activator, single point]",
COc1ccccc1C(=O)Nc1nc(-c2cccs2)c(NC(C)=O)s1,inactive,
Clc1ccc(OCCn2cnc3ccccc32)cc1,active: 3.98 µM,
CC(=O)c1ccc(N2CCN(C(=O)C3(S(=O)(=O)c4ccc(Cl)cc4)CC3)CC2)cc1,"inconclusive: 0.005 µM [activator, full curve, poor fit]",
Fc1cccc(Cn2cc(C(=S)N3CCOCC3)c3ccccc32)c1,"inconclusive: 5.62 µM [inhibitor, full curve, poor fit]",
COc1ccc(-n2c(N)c(C(=O)Nc3c(C)n(C)n(-c4ccccc4)c3=O)c3nc4ccccc4nc32)cc1,inactive,
O=[N+]([O-])c1ccccc1Oc1ccccc1Cl,"inconclusive: 15.8 µM [activator, partial curve]",
CCCCNC(=O)c1onc(CSc2ccccc2F)c1C(=O)O,inactive,
COc1cc(N=CC2=C(O)c3ccccc3C2=O)cc(OC)c1,"inconclusive: 2.24 µM [activator, partial curve, poor fit]",
COC(=O)c1cc(S(=O)(=O)C(C)C)c(S(C)=O)s1 (stereo unspecified),"inconclusive: 14.1 µM [inhibitor, single point]",
CC(=O)N1CCN(C2=NC(=O)C(=C3CCCCC3)S2)CC1,"inconclusive: 3.16 µM [activator, full curve]",
Cc1ccc(NC(=O)Nc2nnc(-c3ccncc3)s2)cc1C,inactive,
CC(=O)c1cc2c(cc1NC(=O)CN1CCC(Cc3ccccc3)CC1)OCO2,inactive,
COc1cc(/C=N\NC(=O)C2COc3ccccc3O2)cc(OC)c1O (stereo unspecified),inactive,
COc1cc(-c2c(-c3cc(OC)c(OC)c(OC)c3)noc2C)ccc1F,"inconclusive: 8.91 µM [inhibitor, partial curve, poor fit]",
CC(CCc1ccccc1)NC(=O)COc1cc(F)ccc1[N+](=O)[O-] (stereo unspecified),"inconclusive: 35.5 µM [activator, single point]",
Cc1nc(C)c(C(=O)N/N=C/c2cn(C)c3ccccc23)s1,active: 11.2 µM,
O=C(COc1ccc2ccccc2c1)Nc1nccs1,active: 10 µM,
CCN(CC)CCCN(Cc1cc2cc3c(cc2[nH]c1=O)OCO3)C(=S)Nc1ccc(OC)cc1,inactive,
CN1C(=O)[C@@H]2[C@@H]3C[C@@H]([C@H]4ON=C(c5ccc(Cl)cc5Cl)[C@@H]34)[C@@H]2C1=O,"inconclusive: 35.5 µM [activator, single point]",
Cc1cc(Br)cn2ccnc12,"inconclusive: 1.41 µM [inhibitor, partial curve]",
CN1N=C(C(=O)N2CCCC(N3CCN(c4ccc(F)cc4)CC3)C2)CCC1=O (stereo unspecified),inactive,
CCN(CC)C(=O)CSc1nc2ncc(Br)cc2[nH]1,"inconclusive: 35.5 µM [inhibitor, single point]",
Cc1ccc2nc(N(CCCN(C)C)C(=O)c3ccc4c(c3)CCCC4)sc2c1,"inconclusive: 35.5 µM [inhibitor, single point]",

Compound,Potency,"activity change, negative = inhibition"
O=C(OCc1ccccc1F)c1ccc2c(c1)OCCO2,"inconclusive: 1 µM [activator, full curve, poor fit]",
NC(=O)[C@@H]1CCCN1Cc1nc(-c2ccc(C(F)(F)F)cc2)no1,"inconclusive: 25.1 µM [activator, single point]",
O=C(c1cnn2c(C(F)F)cc(-c3ccccc3)nc12)N1CCCc2ccccc21,"inconclusive: 1.41 µM [inhibitor, full curve]",
Cc1[nH]nc(N=CC2=C(O)CC(C)(C)CC2=O)c1-c1ccc(Cl)cc1,"inconclusive: 25.1 µM [inhibitor, single point]",
COc1ccccc1Cn1c(C(C)C)nc2ccccc21,active: 7.94 µM,
COc1ccc(C(CCN2CCCC2)c2c(O)cc(OC)cc2OC)cc1 (stereo unspecified),inactive,
O=C(NCc1cccc(Cl)c1)c1ccc(S(=O)(=O)Nc2cccc(C(F)(F)F)c2)cc1,"inconclusive: 1.58 µM [activator, single point]",
Cc1ccccc1-c1cncnc1N1CCN(C)CC1,inactive,
Cc1cccc(NC(=S)NCCN2CCOCC2)c1C,"inconclusive: 11.2 µM [inhibitor, partial curve, poor fit]",
COc1ccc(C)cc1NC(=O)C(Sc1nnc(-c2cccs2)o1)c1ccccc1 (stereo unspecified),"inconclusive: 14.1 µM [inhibitor, partial curve, poor fit]",
O=c1c(Cl)c(Cl)cnn1-c1ccccc1,active: 10 µM,
S=c1[nH]nc(-c2ccccn2)n1/N=C/c1ccc(-c2ccccc2Cl)o1,active: 8.91 µM,
O=C(c1ccco1)N1CCn2c1nc1ccccc12,"inconclusive: 3.98 µM [activator, single point]",
CC(C)(C)NC(=O)c1cc(NC(=O)c2ccco2)cc(NC(=O)c2ccco2)c1,"inconclusive: 31.6 µM [activator, single point]",
Cc1c(C(=O)N(C)C)sc2nc(-c3ccccn3)[nH]c(=O)c12,"inconclusive: 11.2 µM [inhibitor, single point]",
CCOc1ccc(NC(=O)c2cc3ccccc3cc2OC)cc1,"inconclusive: 35.5 µM [activator, single point]",
O=C(c1ccc2c(c1)OCO2)N1CCC2(CC1)Oc1ccc(F)cc1C(=O)C21CC(c2cccnc2)=NO1 (stereo unspecified),"inconclusive: 10 µM [activator, partial curve, poor fit]",
Cc1ccc(C)c(N(CC(=O)NC(C)C)C(=O)CCC(=O)Nc2ccccn2)c1,"inconclusive: 12.6 µM [inhibitor, single point]",
Cc1ccc(C(=O)Nc2nnc(CC(=O)N/N=C/c3ccncc3)s2)cc1,"inconclusive: 2.82 µM [activator, full curve]",
CNC(=O)CCC(=O)Nc1ccc(C(=O)OC)cc1,inactive,
COc1ccc(-c2nn(-c3ccccc3)cc2/C=N/Nc2ccc(S(N)(=O)=O)cc2[N+](=O)[O-])cc1OC,"inconclusive: 22.4 µM [inhibitor, single point]",
CC(=O)Nc1ccc(NC2=C(Cl)C(=O)c3ccccc3C2=O)cc1,"inconclusive: 10 µM [inhibitor, single point]",
CC(/C=N/NC(=O)c1ccncc1)=C\c1ccc(C(C)C)cc1,inactive,
Cc1ccc(/C=N/NC(=O)c2ccccn2)s1,"inconclusive: 25.1 µM [inhibitor, single point]",

Compound,Potency,"activity change, negative = inhibition"
COc1cc(C(=O)Nn2c(CC(C)C)nc3ccccc3c2=O)cc(OC)c1OC,,inactive: -37% [at 1.91 µM]
O=C1/C(=C/c2cccnc2)SC(=S)N1CC1CCCO1 (stereo unspecified),active: 10 µM,
COc1ccc(C(=O)NCc2ccc3c(c2)OCO3)c(OC)c1,"inconclusive: 0.141 µM [inhibitor, single point]",
Cc1cccc(NC(NC(=O)c2ccccn2)C(Cl)(Cl)Cl)c1 (stereo unspecified),"inconclusive: 11.2 µM [activator, partial curve]",
O=c1cc(C(F)(F)F)[nH]c2c(OC(F)(F)F)cccc12,"inconclusive: 11.2 µM [inhibitor, single point]",
CC(=O)Nc1ccc(Nc2nc(C)c([N+](=O)[O-])c(Nc3ccccc3)n2)cc1,"inconclusive: 0.794 µM [activator, single point]",
Cc1ccc(-n2nc3c(N4CCC(C(=O)N5CCCCCC5)CC4)nnc(C)c3c2C)cc1,inactive,
O=C(COC(=O)c1ccc(Cl)nc1)Nc1ccc(S(=O)(=O)N2CCCC2)cc1,"inconclusive: 12.6 µM [activator, single point]",
COc1ccc(C2c3[nH]c4ccccc4c3CCN2C(=O)c2ccccc2C(C)=O)c(F)c1 (stereo unspecified),"inconclusive: 11.2 µM [activator, single point]",
CC1CCN(S(=O)(=O)c2ccc(C(=O)Nc3nnc(-c4ccncc4)o3)cc2)CC1,active: 1.12 µM,
CCc1ccccc1NC(=S)N(CCc1ccncc1)C(C)C,"inconclusive: 14.1 µM [inhibitor, single point]",
COC(=O)c1cc(OC)c(OC)cc1NC(=O)CSc1ccc(C)cc1,inactive,
CSCc1cc(N2CCOCC2)nc(SCc2ccc(Cl)c(Cl)c2)n1,"inconclusive: 25.1 µM [inhibitor, single point]",
C(=N\Nc1ccccn1)/c1c[nH]c2ccccc12,"inconclusive: 35.5 µM [inhibitor, single point]",
CCCCCC(=O)Nc1cccc2ccccc12,inactive,
COc1ccc(C(=O)CC(=O)C(=O)Nc2ccccc2OC)cc1,active: 5.62 µM,
COc1ccccc1C(CC(=O)Nc1ccc(C)c(C)c1)c1ccc(OC(C)C)cc1 (stereo unspecified),"inconclusive: 35.5 µM [inhibitor, single point]",
C/C(=N\NC(=O)C1CCCC1)c1ccc(Cl)cc1,"inconclusive: 35.5 µM [inhibitor, single point]",
CCOc1cc(C(=O)OCC(=O)NCc2ccco2)cc(OCC)c1OCC,inactive,
COC(=O)C1=C(C)NC(C)=C(C(=O)OC)C1C1CC=CCC1 (stereo unspecified),"inconclusive: 1 µM [activator, single point]",
C#CCN(C)CC/C=C1\c2ccccc2CSc2ccccc21,"inconclusive: 31.6 µM [activator, single point]",
CN1CCN(c2ncc3nc(-c4cccs4)c(=O)n(Cc4cccs4)c3n2)CC1,active: 12.6 µM,
O=S(=O)(c1cccs1)N1CCN(c2ccnc3cc(Cl)ccc23)CC1,"inconclusive: 15.8 µM [inhibitor, single point]",

# Not a retest: an excerpt of the list.
Compound,Potency,"activity change, negative = inhibition"
C/C(=N\NC(=O)C1CCCC1)c1ccc(Cl)cc1,"inconclusive: 35.5 µM [inhibitor, single point]",
CCOc1cc(C(=O)OCC(=O)NCc2ccco2)cc(OCC)c1OCC,inactive,
COC(=O)C1=C(C)NC(C)=C(C(=O)OC)C1C1CC=CCC1 (stereo unspecified),"inconclusive: 1 µM [activator, single point]",
C#CCN(C)CC/C=C1\c2ccccc2CSc2ccccc21,"inconclusive: 31.6 µM [activator, single point]",
